Results from article PMC12255758.
Results are given in words; binding and its absence hold for the method and conditions named. Binding seen in cells or lysates may run through a third protein. For some assays here: Binding calls can cover weak binding; strength is not graded here. Sequences can lack the tags named with a protein.

Legend:
[1] = target: Flag-tagged STUB1 deletion mutant lacking the U-box domain; assay: co-IP; HEK293T co-transfected with HA-GOT2 and Flag-tagged STUB1 (full length or deletion mutants); lysates immunoprecipitated by the tags (anti-Flag magnetic beads for the deletion mutants, 24 h), blotted for HA and Flag
[2] = target: Flag-tagged STUB1 deletion mutant lacking the TPR domain; assay: as above

binding [1]: no binding | binding [2]: binds
B1: HA-tagged GOT2 (enzyme, UniProt P00505 30-430)
chain: SSWWTHVEMGPPDPILGVTEAFKRDTNSKKMNLGVGAYRDDNGKPYVLPSVRKAEAQIAAKNLDKEYLPIGGLAEFCKASAELALGENSEVLKSGRFVTVQTISGTGALRIGASFLQRFFKFSRDVFLPKPTWGNHTPIFRDAGMQLQGYRYYDPKTCGFDFTGAVEDISKIPEQSVLLLHACAHNPTGVDPRPEQWKEIATVVKKRNLFAFFDMAYQGFASGDGDKDAWAVRHFIEQGINVCLCQSYAKNMGLYGERVGAFTMVCKDADEAKRVESQLKILIRPMYSNPPLNGARIAAAILNTPDLRKQWLQEVKVMADRIIGMRTQLVSNLKKEGSTHNWQHITDQIGMFCFTGLKPEQVERLIKEFSIYMTKDGRISVAGVTSSNVGYLAHAIHQVTK
